Measured values from paper PMC9984195.

Biological target: T1, Centrosomal protein of 78 kDa (Cep78), endogenous mouse testicular protein (mouse (endogenous in testis)) (UniProt Q6IRU7)
T1 sequence: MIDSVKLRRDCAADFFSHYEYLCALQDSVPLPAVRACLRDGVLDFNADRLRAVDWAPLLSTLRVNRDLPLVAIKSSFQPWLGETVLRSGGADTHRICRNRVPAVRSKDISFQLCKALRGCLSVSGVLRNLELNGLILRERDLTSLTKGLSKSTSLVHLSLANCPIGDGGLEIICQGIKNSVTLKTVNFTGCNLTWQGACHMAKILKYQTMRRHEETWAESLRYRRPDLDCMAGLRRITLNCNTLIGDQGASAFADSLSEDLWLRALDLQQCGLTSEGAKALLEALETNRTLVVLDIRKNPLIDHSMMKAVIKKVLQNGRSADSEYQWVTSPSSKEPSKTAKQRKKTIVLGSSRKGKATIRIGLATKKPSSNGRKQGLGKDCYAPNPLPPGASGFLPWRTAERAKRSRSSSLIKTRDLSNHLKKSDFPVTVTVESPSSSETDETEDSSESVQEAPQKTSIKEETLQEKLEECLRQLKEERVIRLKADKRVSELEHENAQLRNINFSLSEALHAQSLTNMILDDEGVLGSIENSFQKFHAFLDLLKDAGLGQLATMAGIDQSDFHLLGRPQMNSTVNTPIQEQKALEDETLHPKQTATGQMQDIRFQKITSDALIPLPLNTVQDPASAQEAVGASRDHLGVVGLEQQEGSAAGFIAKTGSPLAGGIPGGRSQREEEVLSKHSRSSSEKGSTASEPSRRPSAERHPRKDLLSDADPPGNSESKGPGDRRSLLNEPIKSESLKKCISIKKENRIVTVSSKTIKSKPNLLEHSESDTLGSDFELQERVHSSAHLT
Assay: affinity purification with mass spectrometry; anti-Cep78 (custom antibody against p457-741 of mouse Cep78) immunoprecipitation from testicular lysates of Cep78^+/− and Cep78^−/− mice, Pierce IP lysis buffer, Pierce co-IP kit, quantitative LC-MS of silver-stained gel lanes

B1: Tetratricopeptide repeat protein 21 A (Ttc21a), endogenous mouse testicular protein (protein, UniProt Q8C0S4 1-1314)
chain: MSSDDSSLMASIIYYSQEKYFHHVLQAANVGLERYSSDPALQFFRAYGILGEDHIHDAISELEGIQSHPDTSLCAVIALLSAHKSCDTIDIEAVQELESSLKEIRRSASSTALYYASLFLWFMGHHDKAREYVDHMLKVSSGSKEGYVLKGWVDLTSSKPHVVKKSIKYLEQGTQDTKDVLGLMGKATYFMTQQNFSGALEVANQVTLACSNFLPALVLKMKLFLARQDWDQTIETGQRILEKDENNIDAWQILAVHELVKEGNTDRAADRVRNLIKALETGEPHNPNLHLKKILVISRLCGRHQVVHRLVSGFLERIFMATPSCALVATELGYLFILHQQVKEACLWYKEAMKLEENRLAALAGSIWCQILQGQLEEAAHQLEFLKEVQQSLGKSELLVFLQALVAAKKQRLEQEATALLKEAVEVHFSSMQGLALSPEYFEKLDPLFLVCIAKEYLHFCPKQPRSPGQLVSPLLKQVAMILSPVVKVAPAMMEPLYVTAQVKFLSGELENAQSTLQRCLELDPTFVDAHLLMSQIYLAQGNFAMCSHCLELGVSHNFQVRDHPLYHFIKARALNKTGDYAEAIKTLKMIIKVPTSKAEEGRKSQSPSVRPSERASILLELVEALRLNGELHEATKIMQDAINEFSGTPEEMRITVANVDLALSKGNVDLALNMLRGITPKQPCYTEAKEKMASIYLHTRKDVRLYIGCYVELCEHLPGPHSSLLLGDAFMNIQEPEKALEVYDEAYRKNPHDASLVSRIGQAYVKTHQYAKAINYYEAAQKISGQDFLCCELAELLLKLKKYHKAEKVLKQALERDSGVKDIPSMINEVKCLLLLAKVYKSHKKEEVMETLNLALDLQSRILKRVPLEQSEMIPFQNQLAASICIQIGEHHLAEKDYDSALKSYKDALAYSPTDSKVVLELAHLYLLLGQLDLCEQRCAPLLEMEQTHERAAVMLADLMFRRQNYETAINLYHQVLEKAPDNFLVLNKLVDLLRRSGKLEEAPAFFELAKKVSSRVPLEPGFNYCQGIYFWHIGQPNEALRFLNKARKDSTWGQLATCYMVQICLNPDNEIVGGEAFESLVGDSNSASRKESQQHGVRTAEKLLREFYPHSESGQTQLRLLQNLCLLATREKANVEVALGAFIEMAQAEKDSIPALLAMAQAYILLKQVPKARTQLKRLAKVPWTVDEAEDLEKSWLLLADIYCQGGKFDLALELLRRCLQYNKSCCRAYEYMGFIMEKEQSYKDAATNYELAWKYSHQANPAIGFKLAFNYLKDKKFVDAIEVCHSVLTEHPKYPKIREEILEKAQGSLRP
Question: For B1, which binding is on record?
Answer: binds

No constants are given. Whether binding was seen depends on the method and setting. In cells and extracts the contact can be indirect. A yes stands for co-enrichment or nearness to the bait. Other partners may have been found.
